Measurements reported in PubChem BioAssay AID1159578 (Peter MacCallum Cancer Centre, 2015)

Aim: 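siRNA pools altering how lymphatic endothelial cells close a scratch wound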 (primary screen)
Cells: human lymphatic endothelial cells
Reagent: siRNA pool against human genes, 40 nM
Duration: 48 h after transfection
Measurement: 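Cells stained with dye and imaged after a scratch; covered wound area and nuclei counted, duplicates averaged, migration set against mock wells and turned into a robust z-score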
Reading the numbers: migration robust z-score: higher = faster migration into the scratch; nuclei per well: higher = more cells in the well
Rule for the call: 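Pools averaging fewer than 3300 nuclei are never called; remaining pools count as changed when migration robust z lies outside -2 to 2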
Meaning of the calls: active = migration changed; inactive = no migration change, or too few cells
Here is an unselected part of about 18,000 reagents tested. Over the whole deposit, about 1,030 (5.7%) were called active. 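Inactive calls also include pools with fewer than 3300 nuclei, whose migration was not assessed.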 Raw values vary from plate to plate and are shown uncorrected. Not all columns of the deposit are shown. No sequences are given here.

For CCDC158 (GeneID 339965), what was measured?
migration robust z-score: -0.16; nuclei per well, duplicate mean: 5382; Outcome: inactive

What did the screen give for GTF2A1 (GeneID 2957)?
migration robust z-score: 0.5; nuclei per well, duplicate mean: 5022; Outcome: inactive

For OTOGL (GeneID 283310), what was measured?
migration robust z-score: 0.48; nuclei per well, duplicate mean: 6115; Outcome: inactive

Which result is listed for ZCWPW2 (GeneID 152098)?
migration robust z-score: -0.74; nuclei per well, duplicate mean: 7255; Outcome: inactive

For CDC34 (GeneID 997), what was measured?
migration robust z-score: 2.08; nuclei per well, duplicate mean: 3579; Outcome: active

For IL36A (GeneID 27179), how do the results read?
migration robust z-score: -0.39; nuclei per well, duplicate mean: 7388; Outcome: inactive

For LOC400576 (retired record) (GeneID 400576), what was measured?
migration robust z-score: -1.17; nuclei per well, duplicate mean: 6170; Outcome: inactive

How did the screen score OR10G8 (GeneID 219869)?
migration robust z-score: -0.9; nuclei per well, duplicate mean: 5692; Outcome: inactive

With CRYM (GeneID 1428), how do the results read?
migration robust z-score: -2.67; nuclei per well, duplicate mean: 5071; Outcome: active

For TIMELESS (GeneID 8914), what was measured?
migration robust z-score: 1.14; nuclei per well, duplicate mean: 4046; Outcome: inactive

For C9orf85 (GeneID 138241), what was measured?
migration robust z-score: -0.37; nuclei per well, duplicate mean: 4725; Outcome: inactive

With TRIP11 (GeneID 9321), what was measured?
migration robust z-score: -0.05; nuclei per well, duplicate mean: 6824; Outcome: inactive

With ADISSP (GeneID 54976), what was measured?
migration robust z-score: 0.63; nuclei per well, duplicate mean: 5547; Outcome: inactive

For SMCP (GeneID 4184), how do the results read?
migration robust z-score: -0.07; nuclei per well, duplicate mean: 6726; Outcome: inactive

For ABHD1 (GeneID 84696), what does the deposit list?
migration robust z-score: -0.31; nuclei per well, duplicate mean: 6575; Outcome: inactive

How did the screen score RPL3 (GeneID 6122)?
migration robust z-score: -1.27; nuclei per well, duplicate mean: 4024; Outcome: inactive

With RGL2 (GeneID 5863), what was measured?
migration robust z-score: 0.1; nuclei per well, duplicate mean: 5964; Outcome: inactive

What is on record for CFAP36 (GeneID 112942)?
migration robust z-score: -0.65; nuclei per well, duplicate mean: 4873; Outcome: inactive

For COA1 (GeneID 55744), what was measured?
migration robust z-score: -1.88; nuclei per well, duplicate mean: 6261; Outcome: inactive

How did the screen score LEMD1 (GeneID 93273)?
migration robust z-score: 0.32; nuclei per well, duplicate mean: 6216; Outcome: inactive

For RABGGTB (GeneID 5876), what was measured?
migration robust z-score: -0.54; nuclei per well, duplicate mean: 6610; Outcome: inactive

With PHF20 (GeneID 51230), what does the deposit list?
migration robust z-score: 0.21; nuclei per well, duplicate mean: 6636; Outcome: inactive

How did the screen score CDR2L (GeneID 30850)?
migration robust z-score: -0.24; nuclei per well, duplicate mean: 6600; Outcome: inactive

What did the screen give for USP49 (GeneID 25862)?
migration robust z-score: 0; nuclei per well, duplicate mean: 3738; Outcome: inactive

With FEZF1 (GeneID 389549), what does the deposit list?
migration robust z-score: 0.22; nuclei per well, duplicate mean: 6728; Outcome: inactive

For CD40 (GeneID 958), what does the deposit list?
migration robust z-score: 0.96; nuclei per well, duplicate mean: 5662; Outcome: inactive

How did the screen score S100Z (GeneID 170591)?
migration robust z-score: 1.36; nuclei per well, duplicate mean: 5384; Outcome: inactive

Entries above whose gene name begins with T or t (2):
TIMELESS (GeneID 8914) | migration robust z-score = 1.14; nuclei per well, duplicate mean = 4046; Outcome = inactive
TRIP11 (GeneID 9321) | migration robust z-score = -0.05; nuclei per well, duplicate mean = 6824; Outcome = inactive
